# The other results are listed elsewhere or left out.
# Sequences of proteins named here, by UniProt entry; tags and fusion partners are left off. A change or cut given only in a name is not applied to a line headed by its entry.
# UniProt P62341, whole entry, looked up: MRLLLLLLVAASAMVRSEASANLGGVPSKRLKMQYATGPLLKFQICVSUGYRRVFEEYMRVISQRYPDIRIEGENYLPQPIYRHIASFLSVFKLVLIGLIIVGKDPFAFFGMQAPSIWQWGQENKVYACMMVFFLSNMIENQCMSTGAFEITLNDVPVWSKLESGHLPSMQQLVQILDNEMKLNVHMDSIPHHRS
# UniProt Q9NP31, whole entry, looked up: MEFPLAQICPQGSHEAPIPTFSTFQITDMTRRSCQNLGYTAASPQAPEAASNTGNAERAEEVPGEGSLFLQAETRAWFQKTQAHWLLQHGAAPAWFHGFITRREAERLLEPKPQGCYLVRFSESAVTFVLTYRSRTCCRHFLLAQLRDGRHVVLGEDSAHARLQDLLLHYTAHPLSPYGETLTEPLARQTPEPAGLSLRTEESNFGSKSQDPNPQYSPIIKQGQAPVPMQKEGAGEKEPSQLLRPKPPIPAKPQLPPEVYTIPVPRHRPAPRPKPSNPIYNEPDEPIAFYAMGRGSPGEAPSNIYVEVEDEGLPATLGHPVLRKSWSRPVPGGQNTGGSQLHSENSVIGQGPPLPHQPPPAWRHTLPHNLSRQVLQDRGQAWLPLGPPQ
# UniProt P04279: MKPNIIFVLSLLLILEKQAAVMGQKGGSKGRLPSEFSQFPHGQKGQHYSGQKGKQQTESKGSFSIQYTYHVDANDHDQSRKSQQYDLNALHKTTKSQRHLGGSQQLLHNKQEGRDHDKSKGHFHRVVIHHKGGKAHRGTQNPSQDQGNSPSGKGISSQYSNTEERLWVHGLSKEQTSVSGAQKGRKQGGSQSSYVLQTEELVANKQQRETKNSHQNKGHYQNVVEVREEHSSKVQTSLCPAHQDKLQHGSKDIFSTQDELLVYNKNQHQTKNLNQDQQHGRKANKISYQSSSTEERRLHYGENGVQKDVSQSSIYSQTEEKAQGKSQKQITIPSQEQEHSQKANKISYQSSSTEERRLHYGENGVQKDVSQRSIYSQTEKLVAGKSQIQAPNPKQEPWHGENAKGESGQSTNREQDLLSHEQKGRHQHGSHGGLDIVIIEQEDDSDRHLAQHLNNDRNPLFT
# UniProt O75635: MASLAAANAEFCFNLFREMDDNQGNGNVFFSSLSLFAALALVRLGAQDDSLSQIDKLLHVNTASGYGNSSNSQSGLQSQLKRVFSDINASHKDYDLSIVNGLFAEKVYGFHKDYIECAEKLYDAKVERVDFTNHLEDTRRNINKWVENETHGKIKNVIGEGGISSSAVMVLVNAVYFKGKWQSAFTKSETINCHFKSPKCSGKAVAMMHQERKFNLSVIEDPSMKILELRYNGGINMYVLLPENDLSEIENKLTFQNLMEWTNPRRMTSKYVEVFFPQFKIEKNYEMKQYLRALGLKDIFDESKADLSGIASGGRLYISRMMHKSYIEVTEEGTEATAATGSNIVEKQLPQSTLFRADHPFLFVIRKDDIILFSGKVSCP
# UniProt O75563, whole entry, looked up: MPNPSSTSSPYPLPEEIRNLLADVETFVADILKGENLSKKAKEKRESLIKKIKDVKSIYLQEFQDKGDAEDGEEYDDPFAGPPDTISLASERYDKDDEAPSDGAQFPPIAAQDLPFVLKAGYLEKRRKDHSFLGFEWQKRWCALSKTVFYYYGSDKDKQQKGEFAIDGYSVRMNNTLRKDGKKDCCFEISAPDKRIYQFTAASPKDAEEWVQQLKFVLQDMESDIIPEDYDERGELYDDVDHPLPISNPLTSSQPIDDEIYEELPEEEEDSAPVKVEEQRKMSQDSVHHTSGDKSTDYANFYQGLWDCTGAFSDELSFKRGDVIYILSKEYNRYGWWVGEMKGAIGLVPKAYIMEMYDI
# UniProt P55822: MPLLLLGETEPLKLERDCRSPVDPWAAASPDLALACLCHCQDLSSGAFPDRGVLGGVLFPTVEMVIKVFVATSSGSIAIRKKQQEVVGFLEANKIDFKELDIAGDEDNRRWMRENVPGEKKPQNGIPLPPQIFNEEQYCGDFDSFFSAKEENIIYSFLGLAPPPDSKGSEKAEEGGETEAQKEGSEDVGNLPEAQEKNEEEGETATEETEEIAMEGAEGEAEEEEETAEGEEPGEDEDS
# UniProt Q9NTG7: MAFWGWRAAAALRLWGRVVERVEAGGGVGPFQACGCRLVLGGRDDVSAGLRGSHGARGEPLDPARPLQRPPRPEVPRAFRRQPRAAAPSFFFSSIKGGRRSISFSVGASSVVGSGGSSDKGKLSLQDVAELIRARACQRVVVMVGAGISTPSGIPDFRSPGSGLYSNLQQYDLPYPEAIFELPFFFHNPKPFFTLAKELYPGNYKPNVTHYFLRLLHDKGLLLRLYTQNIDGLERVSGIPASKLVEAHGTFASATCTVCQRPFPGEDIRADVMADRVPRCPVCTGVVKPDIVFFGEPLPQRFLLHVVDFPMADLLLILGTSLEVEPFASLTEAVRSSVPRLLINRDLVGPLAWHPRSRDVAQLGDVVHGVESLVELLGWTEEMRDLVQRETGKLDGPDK
# UniProt Q6PI26: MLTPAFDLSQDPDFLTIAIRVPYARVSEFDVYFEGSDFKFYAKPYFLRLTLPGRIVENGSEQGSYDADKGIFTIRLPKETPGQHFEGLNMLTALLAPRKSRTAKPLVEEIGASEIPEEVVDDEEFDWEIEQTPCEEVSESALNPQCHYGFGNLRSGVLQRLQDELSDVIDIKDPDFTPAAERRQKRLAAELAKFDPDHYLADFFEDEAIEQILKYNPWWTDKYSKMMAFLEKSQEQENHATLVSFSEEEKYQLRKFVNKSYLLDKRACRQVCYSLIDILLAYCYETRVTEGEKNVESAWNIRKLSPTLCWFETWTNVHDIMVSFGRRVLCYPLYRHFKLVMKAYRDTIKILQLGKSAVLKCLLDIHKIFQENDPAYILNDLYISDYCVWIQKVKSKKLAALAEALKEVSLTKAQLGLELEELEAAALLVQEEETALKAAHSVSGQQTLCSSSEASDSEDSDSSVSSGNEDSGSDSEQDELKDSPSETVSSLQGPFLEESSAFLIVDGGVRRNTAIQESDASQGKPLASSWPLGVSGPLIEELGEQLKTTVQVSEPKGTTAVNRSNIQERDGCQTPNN
# UniProt Q2M3G4: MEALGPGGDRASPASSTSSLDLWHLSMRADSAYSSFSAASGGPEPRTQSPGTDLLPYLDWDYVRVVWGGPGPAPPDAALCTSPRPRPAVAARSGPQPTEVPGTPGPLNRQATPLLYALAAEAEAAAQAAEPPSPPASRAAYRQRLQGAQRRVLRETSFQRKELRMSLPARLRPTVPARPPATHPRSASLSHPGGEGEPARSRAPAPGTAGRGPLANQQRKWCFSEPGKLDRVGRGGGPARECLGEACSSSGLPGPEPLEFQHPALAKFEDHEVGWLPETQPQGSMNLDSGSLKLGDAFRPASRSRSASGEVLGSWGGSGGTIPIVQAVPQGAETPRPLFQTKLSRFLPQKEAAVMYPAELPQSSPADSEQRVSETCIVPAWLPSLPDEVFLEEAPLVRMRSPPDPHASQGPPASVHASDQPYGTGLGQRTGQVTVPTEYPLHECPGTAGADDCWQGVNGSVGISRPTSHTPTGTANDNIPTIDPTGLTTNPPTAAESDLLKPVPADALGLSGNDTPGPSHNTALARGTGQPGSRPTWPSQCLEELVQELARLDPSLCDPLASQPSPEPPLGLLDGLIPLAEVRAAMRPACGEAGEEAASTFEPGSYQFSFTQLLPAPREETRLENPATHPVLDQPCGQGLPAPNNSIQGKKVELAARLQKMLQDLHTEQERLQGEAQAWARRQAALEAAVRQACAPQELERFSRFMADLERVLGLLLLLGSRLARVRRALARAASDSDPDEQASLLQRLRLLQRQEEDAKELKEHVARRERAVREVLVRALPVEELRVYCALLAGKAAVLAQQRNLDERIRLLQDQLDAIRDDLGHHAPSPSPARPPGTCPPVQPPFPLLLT
# UniProt P36952: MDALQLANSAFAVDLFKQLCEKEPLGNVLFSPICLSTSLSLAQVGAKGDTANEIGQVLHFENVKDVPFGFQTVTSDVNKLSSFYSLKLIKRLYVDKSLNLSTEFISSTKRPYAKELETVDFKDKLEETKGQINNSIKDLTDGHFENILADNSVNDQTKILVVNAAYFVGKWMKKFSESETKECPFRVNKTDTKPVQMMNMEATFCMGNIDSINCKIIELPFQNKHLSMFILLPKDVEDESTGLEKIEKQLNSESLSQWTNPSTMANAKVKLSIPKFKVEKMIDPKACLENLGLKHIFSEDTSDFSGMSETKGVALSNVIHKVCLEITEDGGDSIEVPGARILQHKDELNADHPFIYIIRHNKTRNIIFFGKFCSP
# UniProt Q9BWJ5: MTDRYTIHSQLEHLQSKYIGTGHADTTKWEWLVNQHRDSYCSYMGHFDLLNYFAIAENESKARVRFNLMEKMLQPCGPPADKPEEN
# UniProt O75326: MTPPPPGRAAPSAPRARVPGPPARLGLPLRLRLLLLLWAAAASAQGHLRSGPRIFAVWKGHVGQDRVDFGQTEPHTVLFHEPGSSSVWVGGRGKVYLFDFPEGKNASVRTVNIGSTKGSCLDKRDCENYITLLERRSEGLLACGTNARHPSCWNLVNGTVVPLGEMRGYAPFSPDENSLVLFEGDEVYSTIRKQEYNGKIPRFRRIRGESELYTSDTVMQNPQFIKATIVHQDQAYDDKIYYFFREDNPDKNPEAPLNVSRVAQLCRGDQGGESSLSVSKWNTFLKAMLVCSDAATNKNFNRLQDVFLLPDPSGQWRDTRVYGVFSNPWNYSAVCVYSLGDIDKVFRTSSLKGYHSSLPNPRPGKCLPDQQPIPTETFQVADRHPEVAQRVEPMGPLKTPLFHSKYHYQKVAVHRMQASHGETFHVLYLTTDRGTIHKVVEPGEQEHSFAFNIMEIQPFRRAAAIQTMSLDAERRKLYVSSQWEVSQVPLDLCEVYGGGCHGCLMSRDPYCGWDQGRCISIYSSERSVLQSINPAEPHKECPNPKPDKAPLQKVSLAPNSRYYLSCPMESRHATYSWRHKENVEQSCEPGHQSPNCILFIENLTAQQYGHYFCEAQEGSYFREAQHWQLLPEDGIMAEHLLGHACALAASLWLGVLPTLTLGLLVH
# UniProt Q96JX3: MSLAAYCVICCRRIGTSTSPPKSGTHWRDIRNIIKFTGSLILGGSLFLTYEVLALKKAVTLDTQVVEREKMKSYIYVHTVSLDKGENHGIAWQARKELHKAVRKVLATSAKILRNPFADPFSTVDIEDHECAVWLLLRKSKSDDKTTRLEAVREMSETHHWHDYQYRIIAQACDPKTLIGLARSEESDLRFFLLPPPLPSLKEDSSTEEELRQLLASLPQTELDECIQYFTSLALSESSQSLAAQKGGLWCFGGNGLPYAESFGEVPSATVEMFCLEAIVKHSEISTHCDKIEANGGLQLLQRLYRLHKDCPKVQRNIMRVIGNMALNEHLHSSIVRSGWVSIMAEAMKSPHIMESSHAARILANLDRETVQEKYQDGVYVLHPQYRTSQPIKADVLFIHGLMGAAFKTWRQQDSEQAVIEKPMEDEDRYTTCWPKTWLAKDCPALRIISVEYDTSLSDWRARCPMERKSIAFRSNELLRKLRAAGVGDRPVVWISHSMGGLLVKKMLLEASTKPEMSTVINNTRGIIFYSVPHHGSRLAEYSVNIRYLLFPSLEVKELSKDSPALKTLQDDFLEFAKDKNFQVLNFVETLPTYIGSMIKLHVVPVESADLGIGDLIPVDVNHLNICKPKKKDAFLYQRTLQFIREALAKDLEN
# Columns and labels:
# Assay in all cases: log2 fold change, soluble protein after heating vs DMSO (PISA); higher = thermal stabilisation; K562 cells, 10 uM, 30 min; active = over 0.2 and 3.5 SD of the protein, either way, in both replicates (recomputed)
# [1] = compound: C1=CC=C(C=C1)[C@H](COC2=CC3=C(C=C2)NC(=O)N3)NC(=O)C4=CC=CN(C4=O)CC5=CC(=C(C=C5)F)F
# Method in brief: (§1)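 Soluble protein was defined as the supernatant after 21,000xg for 90 min. It came from K562 cells at 2×10^6 cells/mL given 10 μM compound for 30 min, heated in aliquots for 3 min across 48°C-58°C, pooled, and extracted in PBS with 0.5% NP-40 at 4°C, and was quantified by TMTpro 16plex LC-MS/MS with equalised channel sums. Thermal stability against control samples, from duplicates, is reported as log2 fold change.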
# [2] = compound: CC1=C2C(=CC=C1)N=C(N(C2=O)C3=CC=CC=C3C)CN4C=NC5=C(N=CN=C54)N
# Method in brief: as §1
# [3] = compound: Cc1sc2c(c1C)C(c1ccc(Cl)cc1)=N[C@@H](CC(=O)OC(C)(C)C)c1nnc(C)n1-2
# Method in brief: as §1
# [4] = compound: CC1=C(SC2=C1C(=N[C@H](C3=NN=C(N32)C)CC(=O)N)C4=CC=C(C=C4)Cl)C
# Method in brief: as §1
# [5] = compound: c1ccc([C@@H]2C[C@H]2NC2CCNCC2)cc1
# Method in brief: as §1
target,measurement,setting,value
SELENOT (UniProt P62341),log2 fold change,[1],inactive: -0.024
same,log2 fold change,[2],inactive: 0.183
same,log2 fold change,[3],inactive: -0.084
SHFL (UniProt Q9NUL5),log2 fold change,[1],inactive: -0.006
same,log2 fold change,[3],inactive: -0.506
SH2D2A isoform 2 (UniProt Q9NP31),log2 fold change,[4],inactive: 0.136
same,log2 fold change,[5],inactive: -0.05
SEMG1 (UniProt P04279),log2 fold change,[4],inactive: 0.115
same,log2 fold change,[5],inactive: -0.081
SERPINB7 (UniProt O75635),log2 fold change,[1],inactive: 0.245
same,log2 fold change,[2],inactive: 0.176
same,log2 fold change,[3],inactive: -0.052
SERPIND1 (UniProt P05546),log2 fold change,[4],inactive: -0.112
same,log2 fold change,[5],inactive: 0.053
SH2B1 (UniProt Q9NRF2),log2 fold change,[2],inactive: -0.262
SKAP2 (UniProt O75563),log2 fold change,[3],inactive: -0.037
SFXN1 (UniProt D6RDG7),log2 fold change,[3],inactive: 0.12
SH3BGR (UniProt P55822),log2 fold change,[1],inactive: -0.004
same,log2 fold change,[4],inactive: -0.001
same,log2 fold change,[5],inactive: 0.001
SECISBP2 (UniProt Q96T21),log2 fold change,[3],inactive: -0.181
SIRT3 (UniProt Q9NTG7),log2 fold change,[2],inactive: 0.039
SERPINA12 (UniProt Q8IW75),log2 fold change,[2],inactive: -0.323
same,log2 fold change,[3],inactive: -0.258
SHQ1 (UniProt Q6PI26),log2 fold change,[2],inactive: 0.033
SEPTIN7 isoform 2 (UniProt Q16181),log2 fold change,[3],inactive: 0.094
SIK3 (UniProt H0Y4E8),log2 fold change,[4],inactive: 0.034
same,log2 fold change,[2],inactive: 0.025
same,log2 fold change,[3],inactive: 0.118
same,log2 fold change,[5],inactive: 0.028
SHROOM1 (UniProt Q2M3G4),log2 fold change,[1],inactive: -0.2
same,log2 fold change,[4],inactive: -0.036
same,log2 fold change,[5],inactive: 0.068
SETDB1 (UniProt Q15047),log2 fold change,[4],inactive: 0.235
same,log2 fold change,[2],inactive: 0.187
same,log2 fold change,[3],inactive: -0.02
same,log2 fold change,[5],inactive: -0.175
SERPINB5 (UniProt P36952),log2 fold change,[1],inactive: -0.092
same,log2 fold change,[2],inactive: 0.035
same,log2 fold change,[3],inactive: -0.961
SF3B5 (UniProt Q9BWJ5),log2 fold change,[1],inactive: 0.056
same,log2 fold change,[2],inactive: -0.032
same,log2 fold change,[3],inactive: 0.007
SERINC1 (UniProt Q9NRX5),log2 fold change,[1],inactive: 0.021
same,log2 fold change,[2],inactive: 0.027
same,log2 fold change,[3],inactive: -0.08
SHROOM4 (UniProt Q9ULL8),log2 fold change,[4],inactive: -0.253
same,log2 fold change,[2],inactive: -0.188
same,log2 fold change,[5],inactive: 0.12
SEMA7A (UniProt O75326),log2 fold change,[2],inactive: -0.047
SESN1 isoform 2 (UniProt Q9Y6P5),log2 fold change,[3],inactive: -0.002
SECISBP2L (UniProt Q93073),log2 fold change,[2],inactive: -0.168
SERAC1 (UniProt Q96JX3),log2 fold change,[4],inactive: -0.197
same,log2 fold change,[5],inactive: 0.097
SIX5 (UniProt Q8N196),log2 fold change,[1],inactive: 0
same,log2 fold change,[4],inactive: 0.004
same,log2 fold change,[5],inactive: -0.053
"SERPINB6, A0A2R8Y7E5",log2 fold change,[1],inactive: -0.269
same,log2 fold change,[2],inactive: 0.138
SEPTIN2 (UniProt B5MCX3),log2 fold change,[2],inactive: 0.386
same,log2 fold change,[3],inactive: 0.19
SELENON (UniProt Q9NZV5),log2 fold change,[2],inactive: -0.048
SERBP1 isoform 3 (UniProt Q8NC51),log2 fold change,[1],inactive: 0.074
same,log2 fold change,[3],inactive: -0.126
SERPING1 isoform 3 (UniProt P05155),log2 fold change,[4],inactive: -0.126
same,log2 fold change,[3],inactive: -0.015
same,log2 fold change,[5],inactive: 0.113
SKA1 (UniProt Q96BD8),log2 fold change,[4],inactive: -0.222
same,log2 fold change,[2],inactive: -0.132
same,log2 fold change,[5],inactive: -0.091

# As a working copy, some entries already given.
target,measurement,setting,value
SERPINB7 (UniProt O75635),log2 fold change,[1],inactive: 0.245
same,log2 fold change,[2],inactive: 0.176
same,log2 fold change,[3],inactive: -0.052
SERPIND1 (UniProt P05546),log2 fold change,[4],inactive: -0.112
same,log2 fold change,[5],inactive: 0.053

# From the supplement of paper PMC10849652
